From patent US20210070872A1 (AGENUS, published 2021)
These are yes or no findings as the source states them, for the method shown. Some results given as binding are weak or reduced against the parent protein; the word gives no strength.

T1: purified recombinant human GITR protein (Example 1) (human) (UniProt Q9Y5U5)
T1 sequence: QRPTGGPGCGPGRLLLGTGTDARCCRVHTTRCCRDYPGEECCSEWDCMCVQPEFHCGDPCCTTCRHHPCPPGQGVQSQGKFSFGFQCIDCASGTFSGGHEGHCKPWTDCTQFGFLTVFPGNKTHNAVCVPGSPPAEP

T2: biotinylated GITR (human, UniProt Q9Y5U5 26-161, limits assumed, biotinylated (sites not given))
T2 construct: also called GITR-bio; Biotin-GITR
T2 sequence: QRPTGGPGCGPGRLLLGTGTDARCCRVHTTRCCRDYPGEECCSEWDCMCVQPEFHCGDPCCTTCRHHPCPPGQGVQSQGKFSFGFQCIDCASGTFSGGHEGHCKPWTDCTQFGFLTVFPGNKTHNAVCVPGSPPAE


Columns and labels:
[1] = target: T1, purified recombinant human GITR protein (Example 1) (human); assay: Western blot, non-reducing
[2] = target: T1, purified recombinant human GITR protein (Example 1) (human); assay: Western blot, non-reducing (FIG. 1)
biotinylated GITR = target: T2, biotinylated GITR; assay: FACS competition; GITR-bio pre-incubated with soluble antibody

| Binder | binding [1] | binding [2] | binding (biotinylated GITR) |
| --- | --- | --- | --- |
| mAb 231-1039-45 (murine) (antibody, mouse IgG1, V domains shown, Mouse IgG1 from hybridoma) VH: QVQLLQSGTELVRPGVSVKISCKGSGYTFTDYAMYWVKQSHAKSLEWIGVIRTYSGDVTYNQKFKDKATMTVDKSSSIAYMELARLSSEDSAIYYCAKSGTVRGFAYWGQGTLVTVSS VL: DIVMTQSPSSLTVTAGEKVIMSCKSSQSLLNSGNQKNYLTWYQQKPGQPPKLLIYWASTRESGVPDRFTGSGSGTDFTLTISSVQAEDLAVYHCQNDYSYPYTFGGGTKLEIK | binds |  |  |
| mAb 231-1333-21 (murine) (antibody, mouse IgG1, V domains shown, Mouse IgG1 from hybridoma) VH: QVQLLQSGTELVRPGVSVKISCKGSGYTFTDYAMYWVKQSHAKSLEWIGVIRTYSGDVTYNQKFKDKATMTVDKSSSIAYMELARLSSEDSAIYYCAKSGTVRGFAYWGQGTLVTVSS VL: DIVMTQSPSSLTVTAGEKVIMSCKSSQSLLNSGNQKNYLTWYQQKPGQPPKLLIYWASTRESGVPDRFTGSGSGTDFTLTISSVQAEDLAVYHCQNDYSYPYTFGGGTKLEIK | binds |  |  |
| mAb 231-1042-7 (murine) (antibody, mouse IgG1, V domains shown, Mouse IgG1 from hybridoma) VH: QVQLLQSGTELVRPGVSVKISCKGSGYTFTDYAMYWVKQSHAKSLEWIGVIRTYSGDVTYNQKFKDKATMTVDKSSSIAYMELARLSSEDSAIYYCAKSGTVRGFAYWGQGTLVTVSS VL: DIVMTQSPSSLTVTAGEKVIMSCKSSQSLLNSGNQKNYLTWYQQKPGQPPKLLIYWASTRESGVPDRFTGSGSGTDFTLTISSVQAEDLAVYHCQNDYSYPYTFGGGTKLEIK | binds |  |  |
| mAb 231-32-15 (murine) (antibody, mouse IgG1, V domains shown, Mouse IgG1 from hybridoma; also called antibody 32-15) VH: QVQLLQSGTELVRPGVSVKISCKGSGYTFTDYAMYWVKQSHAKSLEWIGVIRTYSGDVTYNQKFKDKATMTVDKSSSIAYMELARLSSEDSAIYYCAKSGTVRGFAYWGQGTLVTVSS VL: DIVMTQSPSSLTVTAGEKVIMSCKSSQSLLNSGNQKNYLTWYQQKPGQPPKLLIYWASTRESGVPDRFTGSGSGTDFTLTISSVQAEDLAVYHCQNDYSYPYTFGGGTKLEIK | binds | binds |  |
| Hum231#1 (antibody, V domains shown, Variable regions cloned with IGHG1 (also IGHG4 and Fab vectors exist) and IGKC constant regions; format in each assay not always stated; also called humanized variant Hum231#1 (IGHV1-2*02 and IGK3-7*02)) VH: QVQLVQSGAEVKKPGASVKVSCKGSGYTFTDYAMYWVRQAPGQGLEWIGVIRTYSGDVTYNQKFKDRATMTVDKSISTAYMELSRLRSDDTAVYYCAKSGTVRGFAYWGQGTLVTVSS VL: DIVMTQSPPTLSLSPGERVTLSCKSSQSLLNSGNQKNYLTWYQQKPGQAPRLLIYWASTRESGIPARFSGSGSGTDFTLTISSLQPEDFAVYHCQNDYSYPYTFGQGTKLEIK |  |  | binds |
| Hum231#2 (antibody, human IgG1, V domains shown, Human IgG1 with T109S (Kabat) in the light chain constant domain; also called humanized variant Hum231#2 (IGHV1-2*02 and IGK4-1*01)) VH: QVQLVQSGAEVKKPGASVKVSCKGSGYTFTDYAMYWVRQAPGQGLEWIGVIRTYSGDVTYNQKFKDRATMTVDKSISTAYMELSRLRSDDTAVYYCAKSGTVRGFAYWGQGTLVTVSS VL: DIVMTQSPDSLAVSLGERATINCKSSQSLLNSGNQKNYLTWYQQKPGQPPKLLIYWASTRESGVPDRFSGSGSGTDFTLTISSLQAEDVAVYHCQNDYSYPYTFGQGTKLEIKR |  |  | binds |
